The values that follow come from PMC10682001.

Chains of the proteins cited; added tags and fusions are not shown.
UniProt Q13283: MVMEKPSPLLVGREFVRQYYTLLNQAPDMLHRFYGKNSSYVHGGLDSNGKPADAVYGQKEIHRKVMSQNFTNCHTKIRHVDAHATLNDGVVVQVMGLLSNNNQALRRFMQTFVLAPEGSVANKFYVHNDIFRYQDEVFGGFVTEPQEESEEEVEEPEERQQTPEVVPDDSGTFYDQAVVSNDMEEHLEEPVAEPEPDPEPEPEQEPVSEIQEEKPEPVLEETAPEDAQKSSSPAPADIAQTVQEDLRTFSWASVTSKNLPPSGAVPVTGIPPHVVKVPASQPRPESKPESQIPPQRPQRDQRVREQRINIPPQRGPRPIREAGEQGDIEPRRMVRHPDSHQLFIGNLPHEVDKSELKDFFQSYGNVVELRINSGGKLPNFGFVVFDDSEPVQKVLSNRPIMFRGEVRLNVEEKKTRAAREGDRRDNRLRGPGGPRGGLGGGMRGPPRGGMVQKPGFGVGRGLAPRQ
UniProt Q13148: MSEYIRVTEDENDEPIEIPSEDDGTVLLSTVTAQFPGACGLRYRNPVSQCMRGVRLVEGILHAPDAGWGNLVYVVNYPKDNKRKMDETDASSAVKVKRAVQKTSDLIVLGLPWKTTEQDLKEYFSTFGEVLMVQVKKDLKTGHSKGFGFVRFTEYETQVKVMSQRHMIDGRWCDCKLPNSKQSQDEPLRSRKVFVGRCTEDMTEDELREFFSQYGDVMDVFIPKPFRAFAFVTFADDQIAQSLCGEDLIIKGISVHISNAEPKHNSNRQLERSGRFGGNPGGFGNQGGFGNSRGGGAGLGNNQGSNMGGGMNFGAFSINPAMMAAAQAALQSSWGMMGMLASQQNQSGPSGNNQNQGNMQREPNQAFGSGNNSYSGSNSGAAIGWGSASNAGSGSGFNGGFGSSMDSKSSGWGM
UniProt P35579: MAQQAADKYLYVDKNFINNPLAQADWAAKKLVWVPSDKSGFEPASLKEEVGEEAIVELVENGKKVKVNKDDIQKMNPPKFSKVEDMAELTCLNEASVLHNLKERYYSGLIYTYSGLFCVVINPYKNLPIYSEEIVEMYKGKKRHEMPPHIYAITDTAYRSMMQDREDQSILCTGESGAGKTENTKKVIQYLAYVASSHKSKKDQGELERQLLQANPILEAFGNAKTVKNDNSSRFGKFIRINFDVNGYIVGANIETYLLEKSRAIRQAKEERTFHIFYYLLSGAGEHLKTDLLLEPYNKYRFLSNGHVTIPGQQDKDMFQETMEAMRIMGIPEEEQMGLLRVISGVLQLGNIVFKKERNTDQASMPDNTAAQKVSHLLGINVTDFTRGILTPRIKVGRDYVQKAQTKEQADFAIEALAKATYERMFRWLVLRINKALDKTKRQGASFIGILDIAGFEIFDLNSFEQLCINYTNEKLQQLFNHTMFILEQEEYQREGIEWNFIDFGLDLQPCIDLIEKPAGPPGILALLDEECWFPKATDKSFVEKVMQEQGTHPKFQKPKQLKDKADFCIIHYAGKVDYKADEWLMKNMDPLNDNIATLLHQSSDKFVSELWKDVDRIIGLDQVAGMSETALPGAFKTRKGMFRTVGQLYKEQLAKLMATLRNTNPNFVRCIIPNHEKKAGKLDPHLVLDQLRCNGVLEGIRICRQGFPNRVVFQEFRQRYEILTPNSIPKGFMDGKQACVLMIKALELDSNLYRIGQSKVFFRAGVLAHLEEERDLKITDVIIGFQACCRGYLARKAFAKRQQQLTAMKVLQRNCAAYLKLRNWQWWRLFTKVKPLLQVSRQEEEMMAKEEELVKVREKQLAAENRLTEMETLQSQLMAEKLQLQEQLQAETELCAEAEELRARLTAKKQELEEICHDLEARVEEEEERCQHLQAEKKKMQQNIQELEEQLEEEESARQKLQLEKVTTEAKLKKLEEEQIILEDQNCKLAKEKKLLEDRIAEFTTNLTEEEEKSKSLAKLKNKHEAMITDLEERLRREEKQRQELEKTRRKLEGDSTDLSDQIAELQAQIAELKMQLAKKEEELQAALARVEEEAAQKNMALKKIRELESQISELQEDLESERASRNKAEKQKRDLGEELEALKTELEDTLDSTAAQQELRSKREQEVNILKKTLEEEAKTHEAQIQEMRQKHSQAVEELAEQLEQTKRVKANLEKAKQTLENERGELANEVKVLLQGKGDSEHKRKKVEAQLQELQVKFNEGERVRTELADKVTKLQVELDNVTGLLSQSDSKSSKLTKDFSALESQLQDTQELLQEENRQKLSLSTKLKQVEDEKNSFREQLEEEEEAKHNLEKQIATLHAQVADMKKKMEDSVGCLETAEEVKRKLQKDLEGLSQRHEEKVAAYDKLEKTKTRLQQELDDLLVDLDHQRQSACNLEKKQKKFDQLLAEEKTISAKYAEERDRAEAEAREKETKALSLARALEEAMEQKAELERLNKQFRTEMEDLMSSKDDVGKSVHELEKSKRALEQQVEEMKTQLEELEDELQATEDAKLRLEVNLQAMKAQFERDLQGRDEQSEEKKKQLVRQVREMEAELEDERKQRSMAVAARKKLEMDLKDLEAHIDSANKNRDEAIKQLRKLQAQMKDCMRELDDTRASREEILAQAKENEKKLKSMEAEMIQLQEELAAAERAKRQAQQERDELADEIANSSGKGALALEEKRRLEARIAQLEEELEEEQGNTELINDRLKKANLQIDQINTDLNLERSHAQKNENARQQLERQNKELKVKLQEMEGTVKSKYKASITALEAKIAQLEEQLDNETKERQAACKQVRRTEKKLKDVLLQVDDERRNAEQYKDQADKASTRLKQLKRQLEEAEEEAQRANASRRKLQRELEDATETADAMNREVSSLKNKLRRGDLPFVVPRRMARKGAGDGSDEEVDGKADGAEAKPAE
UniProt P35580: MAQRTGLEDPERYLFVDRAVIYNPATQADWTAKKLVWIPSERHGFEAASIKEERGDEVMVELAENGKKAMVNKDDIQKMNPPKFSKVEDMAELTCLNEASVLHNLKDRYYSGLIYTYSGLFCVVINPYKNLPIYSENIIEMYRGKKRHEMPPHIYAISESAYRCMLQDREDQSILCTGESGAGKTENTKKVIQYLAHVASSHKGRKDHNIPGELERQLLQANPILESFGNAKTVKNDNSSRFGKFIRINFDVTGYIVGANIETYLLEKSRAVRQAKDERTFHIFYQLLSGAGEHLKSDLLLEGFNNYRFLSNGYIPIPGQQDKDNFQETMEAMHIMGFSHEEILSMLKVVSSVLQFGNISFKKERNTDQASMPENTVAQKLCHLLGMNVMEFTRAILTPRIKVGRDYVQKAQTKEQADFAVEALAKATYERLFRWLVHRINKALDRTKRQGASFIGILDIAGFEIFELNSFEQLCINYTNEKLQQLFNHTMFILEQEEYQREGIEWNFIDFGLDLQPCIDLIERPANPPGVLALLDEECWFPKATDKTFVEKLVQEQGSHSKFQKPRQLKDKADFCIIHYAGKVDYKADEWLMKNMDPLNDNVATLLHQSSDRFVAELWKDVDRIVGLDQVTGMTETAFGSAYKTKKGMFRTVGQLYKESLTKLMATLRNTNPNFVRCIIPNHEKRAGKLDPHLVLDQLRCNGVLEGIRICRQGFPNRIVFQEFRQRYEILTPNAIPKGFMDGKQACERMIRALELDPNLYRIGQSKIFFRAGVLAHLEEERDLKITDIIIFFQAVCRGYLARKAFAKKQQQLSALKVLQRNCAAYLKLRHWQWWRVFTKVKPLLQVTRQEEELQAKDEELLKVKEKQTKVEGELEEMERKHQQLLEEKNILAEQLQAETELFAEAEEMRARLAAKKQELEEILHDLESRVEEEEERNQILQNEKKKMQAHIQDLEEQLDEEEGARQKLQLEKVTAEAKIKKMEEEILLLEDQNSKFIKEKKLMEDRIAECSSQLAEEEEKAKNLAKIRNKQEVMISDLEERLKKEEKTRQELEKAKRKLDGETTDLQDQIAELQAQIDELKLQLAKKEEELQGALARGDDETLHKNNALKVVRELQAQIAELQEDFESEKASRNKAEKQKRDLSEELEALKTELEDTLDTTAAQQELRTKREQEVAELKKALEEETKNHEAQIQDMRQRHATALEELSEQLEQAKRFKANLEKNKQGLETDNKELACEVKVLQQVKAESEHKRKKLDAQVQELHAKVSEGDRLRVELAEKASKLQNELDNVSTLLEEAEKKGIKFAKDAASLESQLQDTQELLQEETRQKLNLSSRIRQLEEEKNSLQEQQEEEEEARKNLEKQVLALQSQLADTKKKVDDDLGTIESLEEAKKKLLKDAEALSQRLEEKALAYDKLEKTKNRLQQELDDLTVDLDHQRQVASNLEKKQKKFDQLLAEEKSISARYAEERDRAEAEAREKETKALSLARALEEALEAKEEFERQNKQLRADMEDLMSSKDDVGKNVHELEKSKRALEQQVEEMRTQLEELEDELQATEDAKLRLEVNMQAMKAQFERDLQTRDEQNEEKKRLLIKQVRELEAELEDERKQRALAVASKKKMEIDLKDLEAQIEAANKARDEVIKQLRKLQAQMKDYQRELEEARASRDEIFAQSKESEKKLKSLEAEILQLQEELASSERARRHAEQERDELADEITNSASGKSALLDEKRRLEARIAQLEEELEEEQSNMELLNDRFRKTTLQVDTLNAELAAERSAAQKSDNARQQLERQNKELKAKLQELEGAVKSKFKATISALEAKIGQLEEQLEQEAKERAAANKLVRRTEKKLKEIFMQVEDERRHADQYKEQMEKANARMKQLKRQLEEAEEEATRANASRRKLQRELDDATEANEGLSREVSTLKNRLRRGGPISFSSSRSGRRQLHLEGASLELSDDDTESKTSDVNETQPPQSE
UniProt P09874: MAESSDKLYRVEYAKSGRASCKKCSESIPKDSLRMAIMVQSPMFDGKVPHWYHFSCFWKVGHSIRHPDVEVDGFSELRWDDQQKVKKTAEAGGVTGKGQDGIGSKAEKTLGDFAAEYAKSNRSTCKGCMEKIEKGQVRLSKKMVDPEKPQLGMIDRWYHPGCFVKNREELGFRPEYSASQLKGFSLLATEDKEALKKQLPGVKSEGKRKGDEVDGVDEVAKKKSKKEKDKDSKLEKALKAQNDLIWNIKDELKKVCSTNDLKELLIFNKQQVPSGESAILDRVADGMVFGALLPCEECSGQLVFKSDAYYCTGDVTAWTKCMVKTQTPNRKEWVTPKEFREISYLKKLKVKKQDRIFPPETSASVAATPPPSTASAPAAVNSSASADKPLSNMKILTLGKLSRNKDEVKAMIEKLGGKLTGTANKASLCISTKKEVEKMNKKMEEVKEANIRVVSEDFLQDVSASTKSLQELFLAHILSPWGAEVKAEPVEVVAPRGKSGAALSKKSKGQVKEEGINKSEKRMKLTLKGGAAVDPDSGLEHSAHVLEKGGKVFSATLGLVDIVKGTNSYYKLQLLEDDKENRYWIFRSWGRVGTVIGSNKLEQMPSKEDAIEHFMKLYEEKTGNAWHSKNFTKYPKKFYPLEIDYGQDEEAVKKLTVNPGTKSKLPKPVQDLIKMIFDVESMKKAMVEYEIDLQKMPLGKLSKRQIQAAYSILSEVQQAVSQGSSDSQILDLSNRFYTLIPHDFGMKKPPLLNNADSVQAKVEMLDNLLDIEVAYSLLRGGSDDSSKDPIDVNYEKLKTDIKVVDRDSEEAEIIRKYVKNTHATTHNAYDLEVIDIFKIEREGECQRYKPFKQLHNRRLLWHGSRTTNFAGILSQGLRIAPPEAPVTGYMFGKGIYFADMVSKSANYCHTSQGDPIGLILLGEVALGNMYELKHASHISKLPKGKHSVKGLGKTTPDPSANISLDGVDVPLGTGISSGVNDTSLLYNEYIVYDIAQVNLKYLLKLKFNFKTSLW
UniProt O14950: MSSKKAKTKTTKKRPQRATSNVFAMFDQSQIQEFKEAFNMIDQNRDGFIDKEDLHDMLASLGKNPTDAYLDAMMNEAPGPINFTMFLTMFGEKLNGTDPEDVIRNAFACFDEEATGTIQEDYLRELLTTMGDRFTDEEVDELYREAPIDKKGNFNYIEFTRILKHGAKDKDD
UniProt P60660: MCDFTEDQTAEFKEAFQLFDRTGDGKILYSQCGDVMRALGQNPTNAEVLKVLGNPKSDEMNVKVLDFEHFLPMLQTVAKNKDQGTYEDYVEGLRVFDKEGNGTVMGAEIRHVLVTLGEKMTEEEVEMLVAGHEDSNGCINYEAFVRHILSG

The target of test [1] is T1, CAPRIN1 (human (endogenous in U2OS)) (UniProt Q14444).
T1 sequence: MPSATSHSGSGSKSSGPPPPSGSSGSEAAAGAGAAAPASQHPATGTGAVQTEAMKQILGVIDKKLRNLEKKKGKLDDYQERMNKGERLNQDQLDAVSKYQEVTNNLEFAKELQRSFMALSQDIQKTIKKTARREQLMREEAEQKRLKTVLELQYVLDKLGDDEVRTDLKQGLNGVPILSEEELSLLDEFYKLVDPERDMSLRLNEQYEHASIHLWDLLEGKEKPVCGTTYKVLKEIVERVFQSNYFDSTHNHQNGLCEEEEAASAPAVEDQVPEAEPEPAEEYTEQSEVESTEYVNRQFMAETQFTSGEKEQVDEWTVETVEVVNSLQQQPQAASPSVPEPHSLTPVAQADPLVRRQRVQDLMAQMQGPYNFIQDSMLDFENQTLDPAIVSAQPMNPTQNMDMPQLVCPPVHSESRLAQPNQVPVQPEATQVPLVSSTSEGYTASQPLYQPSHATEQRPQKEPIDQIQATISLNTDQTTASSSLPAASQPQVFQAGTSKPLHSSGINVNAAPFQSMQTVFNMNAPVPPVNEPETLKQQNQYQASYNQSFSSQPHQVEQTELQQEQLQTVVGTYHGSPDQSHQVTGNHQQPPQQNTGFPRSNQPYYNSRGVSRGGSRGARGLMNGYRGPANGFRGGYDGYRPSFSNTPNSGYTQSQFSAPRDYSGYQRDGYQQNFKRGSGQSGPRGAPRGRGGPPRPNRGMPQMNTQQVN
Kind of test: affinity purification with mass spectrometry; SG fraction (S850, differential centrifugation) of wild-type U2OS cells over heat shock at 43 °C (0, 10, 20, 30, 60, 120, 180 min) and recovery at 37 °C (5, 10 min); G3BP1 or CAPRIN1 antibody cross-linked to protein A/G magnetic beads, 3 h at 4 °C; washes with SG Lysis Buffer, + 2 M urea, and 300 mM KOAc; TMT-labelled LC-MS/MS, three replicates; dynamic proteins had to change >1.2-fold in both datasets.

Test [2] deals with G3BP1 (human (endogenous in U2OS)) (UniProt Q13283). The description is as above.

Results are given in words; binding and its absence hold for the method and conditions named. In cells and extracts the contact can be indirect. Here binding means that the protein was enriched with, or labelled near, the bait; the list need not be complete.

As for TDP-43 (from UniProt Q13148 1-414), in test [1], the binding entry is “binds”.
For MYH9 (from UniProt P35579 1-1960), the binding result in test [2] and in test [1] was “binds” in each case.
Regarding MYH10 (from UniProt P35580 1-1976), the binding result in test [2] and in test [1] was “binds” throughout.
Regarding “poly(ADP-ribose) polymerase 1 (from UniProt P09874 1-1014)”, the binding entry in test [2] and in test [1] was “binds” throughout.
As to MYL12B (from UniProt O14950 1-172), the binding result in test [2] and in test [1] was “binds” throughout.
In the case of MYL6 (from UniProt P60660 1-151), the binding entry in test [2] and in test [1] was “binds” throughout.
In the case of VCP (from UniProt P55072 1-806), the binding result in test [2] and in test [1] was “binds” each time.
